Values of other authors, collected in patent US10532995B2, “Substituted pyrazole compounds as serine protease inhibitors” (VERSEON CORPORATION, priority 2015, dated 2020).
At least one compound was matched to its structure with a doubt left.

Tested on: cardioembolic events in patients with non-valvular atrial fibrillation
Details: SPORTIF III and V combined, versus warfarin; cited from earlier work

In the case of CCOC(=O)CN[C@@H](C(=O)N1CC[C@H]1C(=O)NCc1ccc(/C(N)=N\O)cc1)C1CCCCC1 [ximelagatran], the “relative risk reduction in composite outcome of all strokes, systemic embolic events, major bleeding, and death” value is listed as 16%.
